Measured values published in patent US20120207760A1.
Results are given in words; binding and its absence hold for the method and conditions named. Some binding calls cover weakened binding; strength is not graded here.

Chains of the proteins cited; added tags and fusions are not shown.
UniProt P06821, whole entry: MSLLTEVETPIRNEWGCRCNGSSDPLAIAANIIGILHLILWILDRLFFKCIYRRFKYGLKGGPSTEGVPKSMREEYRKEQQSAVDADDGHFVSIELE

Legend:
[1] = biological target: M2 protein of A/Puerto Rico/8/34 (H1N1), on virus particles, infected MDCK cells or transfected cells (influenza A virus A/Puerto Rico/8/34 (H1N1)) (UniProt P06821); assay: ELISA on influenza virus, crude supernatant (FIG. 9)
[2] = biological target: M2 protein of A/Puerto Rico/8/34 (H1N1), on virus particles, infected MDCK cells or transfected cells (influenza A virus A/Puerto Rico/8/34 (H1N1)) (UniProt P06821); assay: ELISA on purified A/Puerto Rico/8/34 virus coated at 10 ug/ml (FIG. 14A)
[3] = biological target: M2 protein of A/Puerto Rico/8/34 (H1N1), on virus particles, infected MDCK cells or transfected cells (influenza A virus A/Puerto Rico/8/34 (H1N1)) (UniProt P06821); assay: flow cytometry on MDCK cells infected with A/Puerto Rico/8/34 (FIG. 14C)
[4] = biological target: M2 protein of A/Puerto Rico/8/34 (H1N1), on virus particles, infected MDCK cells or transfected cells (influenza A virus A/Puerto Rico/8/34 (H1N1)) (UniProt P06821); assay: FMAT on MDCK cells infected with A/PR/8/32, crude supernatant (FIG. 10)
[5] = biological target: M2 protein of A/Puerto Rico/8/34 (H1N1), on virus particles, infected MDCK cells or transfected cells (influenza A virus A/Puerto Rico/8/34 (H1N1)) (UniProt P06821); assay: binding to MDCK cells infected with PR8 virus (FIG. 10)
[6] = biological target: M2 protein of A/Puerto Rico/8/34 (H1N1), on virus particles, infected MDCK cells or transfected cells (influenza A virus A/Puerto Rico/8/34 (H1N1)) (UniProt P06821); assay: flow cytometry on infected MDCK cells (FIG. 14c)
[7] = biological target: M2 protein of A/Puerto Rico/8/34 (H1N1), on virus particles, infected MDCK cells or transfected cells (influenza A virus A/Puerto Rico/8/34 (H1N1)) (UniProt P06821); assay: ELISA on PR8 virus, crude supernatant

Measured: binding

B1: TCN-031 (23K12) (antibody, V domains shown)
VH: EVQLVESGGGLVQPGGSLRISCAASGFTVSSNYMSWVRQAPGKGLEWVSVIYSGGSTYYADSVKGRFSFSRDNSKNTVFLQMNSLRAEDTAVYYCARCLSRMRGYGLDVWGQGTTVTVSS
VL: DIQMTQSPSSLSASVGDRVTITCRTSQSISSYLNWYQQKPGKAPKLLIYAASSLQSGVPSRFSGSGSGTDFTLTISGLQPEDFATYYCQQSYSMPAFGQGTKLEIK
binds: [1] | [2] | [3] | [4] | [5] | [6] | [7]
